Structures can show the parent of a compound that is named as a salt. The list shows a part of the results. Repeats in this data set agree poorly, so a single value says little.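 FDA-approved drugs were each paired with colistin at one-eighth its MIC and screened against a multidrug-resistant, mcr-1-positive clinical E. coli isolate, with OD600 read after 24 h. Drug-free bacteria served as growth control, plain broth as blank. Combinations were active if OD600 dropped below 0.2.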
system: Escherichia coli 42 (mcr-1-positive clinical isolate); assay: OD600 after 24 h growth with compound plus colistin (absorbance units (OD600)); higher = more bacterial growth (less inhibition); settings: first compound 25 µM; colistin concentration 0.5 ug/mL; incubation time 24 h; 37 °C

OD600, inactive:
CN(C)[C@@H]1C(=O)C(C(N)=O)=C(O)[C@@]2(O)C(=O)C3=C(O)c4c(O)ccc(Cl)c4[C@@H](O)[C@H]3C[C@@H]12 [Demeclocycline hydrochloride] + CCC(C)CCCC(=O)N[C@@H](CCN)C(=O)N[C@H](C(=O)N[C@@H](CCN)C(=O)N[C@H]1CCNC(=O)[C@H]([C@@H](C)O)NC(=O)[C@H](CCN)NC(=O)[C@H](CCN)NC(=O)[C@H](CC(C)C)NC(=O)[C@@H](CC(C)C)NC(=O)[C@H](CCN)NC1=O)[C@@H](C)O [colistin] 0.99, CN1CC(=O)N2[C@H](c3ccc4c(c3)OCO4)c3[nH]c4ccccc4c3C[C@@H]2C1=O [Tadalafil] + CCC(C)CCCC(=O)N[C@@H](CCN)C(=O)N[C@H](C(=O)N[C@@H](CCN)C(=O)N[C@H]1CCNC(=O)[C@H]([C@@H](C)O)NC(=O)[C@H](CCN)NC(=O)[C@H](CCN)NC(=O)[C@H](CC(C)C)NC(=O)[C@@H](CC(C)C)NC(=O)[C@H](CCN)NC1=O)[C@@H](C)O [colistin] 0.76, C[C@H](Nc1ncnc2nc[nH]c12)c1cc2cccc(Cl)c2c(=O)n1-c1ccccc1 [Duvelisib] + CCC(C)CCCC(=O)N[C@@H](CCN)C(=O)N[C@H](C(=O)N[C@@H](CCN)C(=O)N[C@H]1CCNC(=O)[C@H]([C@@H](C)O)NC(=O)[C@H](CCN)NC(=O)[C@H](CCN)NC(=O)[C@H](CC(C)C)NC(=O)[C@@H](CC(C)C)NC(=O)[C@H](CCN)NC1=O)[C@@H](C)O [colistin] 0.994, CC(C)NCC(O)c1ccc(O)c(O)c1 (centres undefined) [Isoprenaline hydrochloride] + CCC(C)CCCC(=O)N[C@@H](CCN)C(=O)N[C@H](C(=O)N[C@@H](CCN)C(=O)N[C@H]1CCNC(=O)[C@H]([C@@H](C)O)NC(=O)[C@H](CCN)NC(=O)[C@H](CCN)NC(=O)[C@H](CC(C)C)NC(=O)[C@@H](CC(C)C)NC(=O)[C@H](CCN)NC1=O)[C@@H](C)O [colistin] 1.13, CCCCOc1ccc(C(=O)CCN2CCCCC2)cc1 [Dyclonine hydrochloride] + CCC(C)CCCC(=O)N[C@@H](CCN)C(=O)N[C@H](C(=O)N[C@@H](CCN)C(=O)N[C@H]1CCNC(=O)[C@H]([C@@H](C)O)NC(=O)[C@H](CCN)NC(=O)[C@H](CCN)NC(=O)[C@H](CC(C)C)NC(=O)[C@@H](CC(C)C)NC(=O)[C@H](CCN)NC1=O)[C@@H](C)O [colistin] 1.08, CC(C)(C)NCC(O)COc1cccc2c1CCC(=O)N2 (centres undefined) [Carteolol hydrochloride] + CCC(C)CCCC(=O)N[C@@H](CCN)C(=O)N[C@H](C(=O)N[C@@H](CCN)C(=O)N[C@H]1CCNC(=O)[C@H]([C@@H](C)O)NC(=O)[C@H](CCN)NC(=O)[C@H](CCN)NC(=O)[C@H](CC(C)C)NC(=O)[C@@H](CC(C)C)NC(=O)[C@H](CCN)NC1=O)[C@@H](C)O [colistin] 1.15, CC(C)C(=O)Oc1ccc(CO)cc1[C@H](CCN(C(C)C)C(C)C)c1ccccc1 [Fesoterodine fumarate] + CCC(C)CCCC(=O)N[C@@H](CCN)C(=O)N[C@H](C(=O)N[C@@H](CCN)C(=O)N[C@H]1CCNC(=O)[C@H]([C@@H](C)O)NC(=O)[C@H](CCN)NC(=O)[C@H](CCN)NC(=O)[C@H](CC(C)C)NC(=O)[C@@H](CC(C)C)NC(=O)[C@H](CCN)NC1=O)[C@@H](C)O [colistin] 1.07, O=C(Nc1cnn2ccc(N3CCC[C@@H]3c3cc(F)ccc3F)nc12)N1CC[C@H](O)C1 [Larotrectinib] + CCC(C)CCCC(=O)N[C@@H](CCN)C(=O)N[C@H](C(=O)N[C@@H](CCN)C(=O)N[C@H]1CCNC(=O)[C@H]([C@@H](C)O)NC(=O)[C@H](CCN)NC(=O)[C@H](CCN)NC(=O)[C@H](CC(C)C)NC(=O)[C@@H](CC(C)C)NC(=O)[C@H](CCN)NC1=O)[C@@H](C)O [colistin] 1.16, CC(C)C[C@H](NC(=O)CNC(=O)c1cc(Cl)ccc1Cl)B(O)O [Ixazomib] + CCC(C)CCCC(=O)N[C@@H](CCN)C(=O)N[C@H](C(=O)N[C@@H](CCN)C(=O)N[C@H]1CCNC(=O)[C@H]([C@@H](C)O)NC(=O)[C@H](CCN)NC(=O)[C@H](CCN)NC(=O)[C@H](CC(C)C)NC(=O)[C@@H](CC(C)C)NC(=O)[C@H](CCN)NC1=O)[C@@H](C)O [colistin] 1.03

— the supplement of paper PMC11546906
